Results from patent US20220057411A1.
Results are given in words; binding and its absence hold for the method and conditions named. A result given as binding can be weak or reduced; the word gives no strength.

B1: PKC11 (1H1/1K1) rabbit anti-PKCg monoclonal antibody (antibody, V domains shown)
VH: QSVEESGGRLVTPGTPLALTCTVSGFSLNYYAMNWVRQAPVKGLEWIGVITSDTTYYASWAKGRFTISKTSTTVELQITSPTTEDTATYFCASGGSTTSPALWGQGTLVTVSS
VL: AQVLTQTPSPVSAAVGSTVTINCQASQSVWSKNYLSWFQQKPGQPPKQLIYSASTLASGVPSRFSGSGSGTQFTLTISDVQCDDAATYYCLGSYDCRSADCWTFGGGTEVVVK
B2: PKC13 (5H1/5K1) rabbit anti-PKCg monoclonal antibody (antibody, V domains shown)
VH: QEQLKESGGGLVTPGGTLTLTCTVSGFSLSSYAMSWVRQAPGKGLEWIGIIISGGSAYYATWAKGRFTISKTSTTVDLSITSPTTEDTATYFCARAKSGTYTGDYFTLWGQGTLVTVSS
VL: AFELTQTPASVEAAVGGTVTIKCQASESIGNALAWYQQKPGQPPKLLIYRASTLESGVPSRFKGSGSGTEFTLTISDLECADAATYYCQSYVGSRSTGYNVFGGGTEVVVK
B3: PKC14 (7H1/7K3) rabbit anti-PKCg monoclonal antibody (antibody, V domains shown)
VH: QSLEESGGDLVQPGASLTLTCTASGFTLTTYWICWVRQAPGKGLEWVACILTGSGSTYYASWVNGRFTISKTSSTTVTLQMTSLTAADTATYFCARYGGDATYNENLWGQGTLVTVSS
VL: AQVLTQTPSSVSAAVGGTVTINCQASQSVYNNNRLSWYQQKPGQPPKRLIYGVSTLYYGVSSRFKGSGSGTQFTLTISGMQCDDAAIYYCLGGYDCASADCYAFGGGTEVVVK

Target: Proteintech Recombinant PRKCG (catalog ag5910) (UniProt P05129)
Assay: Multi-Antigen Print Immunoassay (MAPIA) against recombinant PRKCG

binding, binds:
B1
B2
B3
